Assay results taken from PubChem BioAssay AID504467 (National Center for Advancing Translational Sciences (NCATS), 2011).
About 7,700 (2.3%) of roughly 330,000 compounds were called active. The shares of active, inactive and inconclusive entries below differ from those in the screen. Calls follow the shape of the dose curve; as a rule, active = well fitted inhibition curve with a large enough effect; inconclusive = small, poorly fitted or top-dose-only effect, or effect the other way; inactive = flat fitted curve, though single readings scatter. Potencies of inconclusive entries are doubtful fits and often do not repeat.

test: qHTS screen for small molecules that inhibit ELG1-dependent DNA repair in human embryonic kidney (HEK293T) cells expressing luciferase-tagged ELG1; settings: HEK293T ELG1-luciferase reporter, luminescence, 16 h, DNA damage induced by 5-fluorouridine; series mostly up to 46.1 µM; also: nearly all actives have a fitted effect of over 55% in size
Outline: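 Overnight (16 hr) co-exposure of 2,000 cells/well to 5-fluorouridine and compound at 37 °C preceded detection. Luciferase was quantified via ONE-Glo luminescence; loss of signal denotes inhibition.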
Potency is read from the fitted curve at half-maximal effect.

SMILES | Potency
COC(=O)c1sc(N2CCN(c3ccc(Cl)cc3)CC2)nc1N | active: 23.1 µM
CCc1cc2c(N[C@@H](C)C(=O)O)ncnc2s1 | inconclusive: 0.13 µM [inhibitor, single point]
COCCCNc1nc(-c2ccncc2)nc2ccccc12 | active: 18.4 µM
O=C(NCCSCc1c(F)cccc1Cl)c1ccc(CN2CCOCC2)cc1 | inconclusive: 25.9 µM [inhibitor, single point]
Cc1nc(-n2nnc3ccccc32)c2c3c(sc2n1)CCCC3 | inconclusive: 15.8 µM [inhibitor, single point]
CCN1CCN(C(=S)NCC2CCCO2)CC1 (stereo not given) | inactive
CCN=c1scc(C)n1/N=C/c1cc(Br)c(O)c(Br)c1 | inconclusive: 6.51 µM [inhibitor, single point]
O=C(Cn1cnc2ccccc2c1=O)c1ccc(Br)cc1 | inconclusive: 18.3 µM [activator, partial curve]
COC(CNC(=O)c1c[nH]c2ccc(S(=O)(=O)N(C)c3ccc(F)cc3)cc2c1=O)OC | inactive
C=CCSc1nc2sc(C)c(C)c2c(=O)n1CC=C | inconclusive: 0.13 µM [activator, single point]
COc1cccc(C(=O)Nc2ccc3c(C)cc(=O)oc3c2)c1 | inconclusive: 2.91 µM [activator, full curve]
Cc1cc(Oc2ccccc2)nc(SCC(=O)Nc2ccc(Cl)cc2Cl)n1 | inactive
Cc1nc(NC(=S)NC(=O)c2ccco2)sc1C(=O)N(C)C | inconclusive: 18.3 µM [activator, single point]
C=C(C)Cn1c(NCCC)nc2c1c(=O)n(C)c(=O)n2C | inactive
COc1cccc(NC(=O)Nc2ccc3nc(C)c(C)nc3c2)c1 | inactive
CCCCCN(C(=O)CCC(=O)OCC(=O)c1cccc(OC)c1)c1c(N)n(CCCC)c(=O)[nH]c1=O | inactive
Cc1cccnc1NC(=O)c1ccc(Cl)c(S(=O)(=O)N2CCCC2)c1 | inactive
Cn1nnnc1SCC(=O)Nc1ccc(N2CCOCC2)cc1 | inconclusive: 18.4 µM [activator, single point]
O=S(=O)(c1ccc(Br)cc1)N1CCC2(CC1)OCCO2 | inactive
OC(CNC1CCCC1)COc1ccc(-c2ccccc2)cc1 (stereo not given) | inactive
CCN(CC)S(=O)(=O)c1ccc(Cl)c(C(=O)Nc2ccc(Cl)cc2[N+](=O)[O-])c1 | inconclusive: 14.6 µM [inhibitor, partial curve]
Cc1cc(C)n(-c2ccc(C(=O)O)cc2)n1 | inactive
CCn1c(SCC(=O)N/N=C/C=C/c2ccco2)nc2ccccc21 | inactive
Cc1cc(C)nc(NC(=O)c2ccc(Br)cc2)n1 | inactive
COc1ccc(C2NC(C(=O)O)Cc3c2[nH]c2ccccc32)cc1OC (stereo not given) | inactive

Three compounds out of the list, sorted by molecular weight, largest number first:
SMILES | Potency
COC(CNC(=O)c1c[nH]c2ccc(S(=O)(=O)N(C)c3ccc(F)cc3)cc2c1=O)OC | inactive
CCn1c(SCC(=O)N/N=C/C=C/c2ccco2)nc2ccccc21 | inactive
Cc1cc(C)n(-c2ccc(C(=O)O)cc2)n1 | inactive

Next results follow.

SMILES | Potency
COc1cc(-c2nc(-c3ccccc3)c(-c3cccs3)[nH]2)cc(OC)c1OC | inconclusive: 16.4 µM [inhibitor, partial curve, poor fit]
COC(=O)C1CCN(C(=O)c2sc3nc(-c4ccccc4)cn3c2C)CC1 | inactive
CCOC(=O)CCCSc1nc(-c2ccc3c(c2)OCO3)cc(C(F)(F)F)c1C#N | inactive
CC(/C=C/c1ccccc1)=N\NC(=O)c1ccc(Br)cc1 | inconclusive: 29.1 µM [inhibitor, single point]
CN(C)/C=N/c1c(C#N)cnn1-c1ncnc2sc(-c3ccccc3)cc12 | active: 18.4 µM
CC(C)Cc1nc2sc3c(=O)[nH]cnc3c2c2c1CCC2 | inactive
Cc1ccc(S(=O)(=O)N2CCCCC2)cc1NC(=O)CCCOc1ccccc1 | inactive
CN(CC(=O)Nc1ccc(Cl)c(C(F)(F)F)c1)C(=O)c1cc(-c2ccncc2)nc2ccccc12 | inconclusive: 7.3 µM [inhibitor, single point]
Cc1ccc(NC(=O)/C(C#N)=C/c2ccsc2)c(C)c1 | inconclusive: 16.4 µM [activator, partial curve]
COC(=O)C1=C(C)N(c2cccc3ccccc23)C(=O)C1 | inconclusive: 23.1 µM [inhibitor, partial curve, poor fit]
S=C(Nc1ccccc1)N1CCN(C(=S)Nc2ccccc2)CC1 | inconclusive: 6.51 µM [activator, single point]
COc1ccc(C(=O)Oc2cccc(Nc3ncnc4ccccc34)c2)cc1OC | active: 16.4 µM
Cc1sc(NC(=O)C2C3CCC(O3)C2C(=O)O)nc1-c1ccc(CC(C)C)cc1 (stereo not given) | inconclusive: 16.4 µM [activator, partial curve]
c1ccc(-c2oc3ncnc(NCCCN4CCOCC4)c3c2-c2ccccc2)cc1 | inconclusive: 35.5 µM [inhibitor, single point]
COc1cc(/C=N/NC(=S)Nc2cccc(S(=O)(=O)N(C)C)c2)cc(OC)c1O | active: 20.6 µM
COc1ccc(OCc2nnc(SCC(=O)N3CCCc4ccccc43)n2-c2ccc(C)cc2)cc1 | inconclusive: 18.4 µM [inhibitor, single point]
COCCCNC(=O)c1c(N)n(/N=C/c2cccs2)c2nc3ccccc3nc12 | inconclusive: 4.11 µM [inhibitor, single point]
COC(=O)c1ccc(/C=C2\SC(=S)N(CCCC(=O)NCCCN3CCOCC3)C2=O)cc1 | inactive
CCn1cc(/C=N/NS(=O)(=O)c2ccc(OC)cc2)c(C)n1 | inactive
CCOc1cc(S(=O)(=O)NCc2ccncc2)ccc1Cl | inconclusive: 0.291 µM [inhibitor, full curve]
CCC(C)NC(=O)c1ccccc1NC(=O)/C(=C/c1ccc(OC)cc1)c1ccccc1 (stereo not given) | inconclusive: 23.1 µM [inhibitor, partial curve]
COc1ccc(Nc2nc(N3CCN(C)CC3)nc3ccccc23)c(OC)c1 | inactive
COc1ccc(NC(=O)CSc2nc3ccc(Nc4nc(N5CCOCC5)nc(N5CCOCC5)n4)cc3s2)cc1 | active: 2.31 µM
Cc1ccccc1C(=O)NC(=S)Nc1ccccc1[N+](=O)[O-] | inconclusive: 20.6 µM [activator, single point]
CC(SCc1ccc(C(=O)O)o1)c1ccc(C(=O)O)o1 (stereo not given) | inactive

2 successive entries from above, for reference:
SMILES | Potency
c1ccc(-c2oc3ncnc(NCCCN4CCOCC4)c3c2-c2ccccc2)cc1 | inconclusive: 35.5 µM [inhibitor, single point]
COc1cc(/C=N/NC(=S)Nc2cccc(S(=O)(=O)N(C)C)c2)cc(OC)c1O | active: 20.6 µM
